Results from paper PMC5027563, “Functional Recovery of AQP2 Recessive Mutations Through Hetero-Oligomerization with Wild-Type Counterpart” (Scientific Reports, 2016).
Changes are numbered by the printed parent chain. Names and notes keep the numbering of the source. No constants are given. Whether binding was seen depends on the method and setting. Binding seen in cells or lysates may run through a third protein. Some results given as binding are weak or reduced against the parent protein; the word gives no strength. Tags and fused reporters may be left off the sequences shown. Each block holds one binder with its values, some of them ahead of it.

Key:
[1] = molecular target: T1, GFP-tagged wild-type Aquaporin-2 (human, UniProt P41181 1-271); assay: co-IP; Xenopus oocytes co-injected with 0.5 ng mRNA of an untagged AQP2 variant and 1 ng (equimolar) of a GFP-tagged form, 24 h; total membranes solubilised in 2% deoxycholate in PBS, 100,000 x g supernatant; IP with goat anti-GFP and protein-G magnetic beads at room temperature; blot with anti-AQP2 of the untagged 29 kDa band; densitometry in % of wt-AQP2, 4 assays
T1 construct: Aquaporin-2 (AQP2), human, wild type, from pT7Ts-GFP-AQP2 (subcloned through the pAc-GFP vector); 58 kDa with GFP; also called GFP-wt-AQP2; GFP-tagged-WT; source: Xenopus laevis oocytes, cRNA injected; total membranes solubilised in 2% deoxycholate
T1 sequence (looked up): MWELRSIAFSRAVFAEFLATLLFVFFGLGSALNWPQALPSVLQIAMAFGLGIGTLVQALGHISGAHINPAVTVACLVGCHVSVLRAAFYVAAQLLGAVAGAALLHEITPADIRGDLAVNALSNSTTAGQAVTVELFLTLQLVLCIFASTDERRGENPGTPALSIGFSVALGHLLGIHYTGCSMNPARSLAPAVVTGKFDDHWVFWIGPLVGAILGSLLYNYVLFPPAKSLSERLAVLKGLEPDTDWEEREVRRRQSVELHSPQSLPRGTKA

[2] = molecular target: T2, GFP-tagged Aquaporin-2 R187C (human) (UniProt P41181); assay: as above
T2 sequence: T1 sequence (looked up) with R187C

binding [1]: binds
B1: wild-type Aquaporin-2 (untagged) (protein, UniProt P41181 1-271)
chain: T1 sequence (looked up)

binding [2]: no binding
binding [1]: no binding
B2: Aquaporin-2 R187C (untagged) (natural protein, human, UniProt P41181 1-271, looked up)
chain: T1 sequence (looked up) with R187C
